Assay results as given in patent US4246413A, “6-Oxamorphinans” (priority 1979, dated 1981).

Format: in vivo

CN1CC[C@]23c4c5ccc(O)c4O[C@H]2[C@@H](O)C=C[C@H]3[C@H]1C5.O=S(=O)(O)O [morphine sulfate, reference compound]
Agonist Activity ED50, Mice (PO) (PO): 3.1 mg/kg
Agonist Activity ED50, Mice (SC) (SC): 0.26 mg/kg
